Laboratory results from PMC7570948 (2020).
No constants are given. Whether binding was seen depends on the method and setting. In cells and extracts the contact can be indirect. Some results given as binding are weak or reduced against the parent protein; the word gives no strength. For some assays here: Tags and fused reporters may be left off the sequences shown.

By UniProt entry, the sequences of proteins in these tests, tags left out. Residues count along the entry.
UniProt O00574: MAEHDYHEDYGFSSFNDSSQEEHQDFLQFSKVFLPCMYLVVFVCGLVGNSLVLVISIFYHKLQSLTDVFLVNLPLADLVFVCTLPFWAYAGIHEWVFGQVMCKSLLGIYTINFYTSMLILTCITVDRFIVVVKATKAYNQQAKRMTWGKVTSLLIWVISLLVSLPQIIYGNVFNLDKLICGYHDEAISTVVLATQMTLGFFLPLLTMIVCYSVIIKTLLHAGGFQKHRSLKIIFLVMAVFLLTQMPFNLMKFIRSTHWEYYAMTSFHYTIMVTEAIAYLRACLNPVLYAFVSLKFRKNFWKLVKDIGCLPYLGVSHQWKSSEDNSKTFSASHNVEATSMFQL
UniProt P32248, residues 25-378: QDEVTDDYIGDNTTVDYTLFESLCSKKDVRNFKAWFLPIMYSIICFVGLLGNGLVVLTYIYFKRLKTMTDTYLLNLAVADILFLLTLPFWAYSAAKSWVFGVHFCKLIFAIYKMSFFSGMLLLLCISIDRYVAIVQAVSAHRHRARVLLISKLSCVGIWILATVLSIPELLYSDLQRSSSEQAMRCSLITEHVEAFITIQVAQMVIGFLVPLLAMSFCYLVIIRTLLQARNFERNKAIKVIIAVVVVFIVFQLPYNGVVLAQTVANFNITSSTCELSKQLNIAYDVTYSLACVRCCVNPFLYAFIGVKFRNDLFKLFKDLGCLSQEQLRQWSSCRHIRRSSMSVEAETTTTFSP
UniProt P51685: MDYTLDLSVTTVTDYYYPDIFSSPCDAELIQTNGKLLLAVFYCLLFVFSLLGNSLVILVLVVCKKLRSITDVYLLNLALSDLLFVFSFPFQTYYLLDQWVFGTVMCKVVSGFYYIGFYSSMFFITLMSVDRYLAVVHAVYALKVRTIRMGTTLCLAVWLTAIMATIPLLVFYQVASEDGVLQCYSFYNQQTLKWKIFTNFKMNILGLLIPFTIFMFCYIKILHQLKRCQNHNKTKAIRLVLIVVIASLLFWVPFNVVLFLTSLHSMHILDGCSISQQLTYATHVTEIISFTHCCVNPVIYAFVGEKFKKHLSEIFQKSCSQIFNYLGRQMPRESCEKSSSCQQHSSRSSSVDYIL
UniProt P51681: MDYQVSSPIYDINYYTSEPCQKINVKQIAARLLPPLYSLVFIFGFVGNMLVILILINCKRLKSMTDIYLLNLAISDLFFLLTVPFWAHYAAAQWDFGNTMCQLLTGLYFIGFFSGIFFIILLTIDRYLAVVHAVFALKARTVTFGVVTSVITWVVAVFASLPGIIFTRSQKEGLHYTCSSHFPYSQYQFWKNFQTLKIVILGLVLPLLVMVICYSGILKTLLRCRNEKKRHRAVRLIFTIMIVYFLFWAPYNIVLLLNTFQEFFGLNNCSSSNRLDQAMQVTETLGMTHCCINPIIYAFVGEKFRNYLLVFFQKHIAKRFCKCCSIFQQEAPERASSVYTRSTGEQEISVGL
UniProt P32302: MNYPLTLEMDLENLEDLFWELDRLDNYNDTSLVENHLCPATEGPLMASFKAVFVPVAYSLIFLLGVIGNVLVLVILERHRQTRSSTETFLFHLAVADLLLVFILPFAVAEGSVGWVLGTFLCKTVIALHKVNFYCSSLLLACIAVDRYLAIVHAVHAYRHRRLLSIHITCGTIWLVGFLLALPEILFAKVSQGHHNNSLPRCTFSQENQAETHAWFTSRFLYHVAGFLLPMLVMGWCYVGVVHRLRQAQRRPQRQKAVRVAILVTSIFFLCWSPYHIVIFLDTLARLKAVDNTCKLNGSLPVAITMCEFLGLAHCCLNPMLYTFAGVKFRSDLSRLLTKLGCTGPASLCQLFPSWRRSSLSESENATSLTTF
UniProt P49238: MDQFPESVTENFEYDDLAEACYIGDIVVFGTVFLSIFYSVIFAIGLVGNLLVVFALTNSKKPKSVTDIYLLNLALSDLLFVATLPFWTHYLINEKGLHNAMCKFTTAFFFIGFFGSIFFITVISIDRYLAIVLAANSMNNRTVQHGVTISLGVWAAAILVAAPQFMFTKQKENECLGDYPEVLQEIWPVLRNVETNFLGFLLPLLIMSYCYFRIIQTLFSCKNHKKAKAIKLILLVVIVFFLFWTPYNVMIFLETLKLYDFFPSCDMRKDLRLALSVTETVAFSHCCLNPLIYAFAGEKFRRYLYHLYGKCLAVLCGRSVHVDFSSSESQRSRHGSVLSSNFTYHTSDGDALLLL
UniProt P32121: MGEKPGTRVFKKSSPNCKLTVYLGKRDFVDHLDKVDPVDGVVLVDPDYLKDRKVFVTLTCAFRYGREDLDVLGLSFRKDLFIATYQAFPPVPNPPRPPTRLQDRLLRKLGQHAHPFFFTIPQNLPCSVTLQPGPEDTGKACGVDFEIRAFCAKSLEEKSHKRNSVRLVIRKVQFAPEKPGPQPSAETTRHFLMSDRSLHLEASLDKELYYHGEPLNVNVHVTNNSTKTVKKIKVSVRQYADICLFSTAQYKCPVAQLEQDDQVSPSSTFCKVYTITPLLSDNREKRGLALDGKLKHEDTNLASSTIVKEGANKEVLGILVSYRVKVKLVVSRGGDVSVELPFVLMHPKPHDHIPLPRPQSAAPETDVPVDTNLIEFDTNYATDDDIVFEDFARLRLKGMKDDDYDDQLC

What was measured:
Assay in all cases: split reporter; NanoLuc complementation in live HEK293T cells co-transfected with receptor-SmBiT and LgBiT-β-arrestin-2; recruitment induced by 200 nM of one known agonist chemokine (screen) or by a concentration series of CCL19 (CCR7); luminescence read for 20 min
[1] = target: CXCR6 C-terminally tagged to SmBiT (human) (UniProt O00574)
[2] = target: T1, CCR3 C-terminally tagged to SmBiT (human) (UniProt P51677)
T1 sequence: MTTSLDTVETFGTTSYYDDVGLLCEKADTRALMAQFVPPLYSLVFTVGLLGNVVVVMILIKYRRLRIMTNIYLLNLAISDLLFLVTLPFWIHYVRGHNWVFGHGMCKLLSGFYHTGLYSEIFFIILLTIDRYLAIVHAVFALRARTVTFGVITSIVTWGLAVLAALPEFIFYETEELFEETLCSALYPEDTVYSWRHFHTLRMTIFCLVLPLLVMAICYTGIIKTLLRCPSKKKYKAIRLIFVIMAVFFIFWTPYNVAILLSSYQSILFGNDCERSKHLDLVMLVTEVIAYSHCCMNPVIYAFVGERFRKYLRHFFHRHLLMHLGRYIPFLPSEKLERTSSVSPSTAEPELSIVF

[3] = target: T2, CCR6 C-terminally tagged to SmBiT (human) (UniProt P51684)
T2 sequence: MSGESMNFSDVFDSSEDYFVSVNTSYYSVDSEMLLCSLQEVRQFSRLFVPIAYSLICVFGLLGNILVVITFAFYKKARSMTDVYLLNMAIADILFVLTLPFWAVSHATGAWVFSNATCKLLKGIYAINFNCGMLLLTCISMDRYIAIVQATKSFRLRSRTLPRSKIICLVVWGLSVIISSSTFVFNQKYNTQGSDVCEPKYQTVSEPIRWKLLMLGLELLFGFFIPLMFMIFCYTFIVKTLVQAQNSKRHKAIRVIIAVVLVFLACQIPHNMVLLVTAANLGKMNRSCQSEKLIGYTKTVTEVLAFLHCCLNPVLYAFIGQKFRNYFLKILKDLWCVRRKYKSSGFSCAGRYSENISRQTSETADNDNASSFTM

[4] = target: T3, CCR10 C-terminally tagged to SmBiT (human) (UniProt P46092)
T3 sequence: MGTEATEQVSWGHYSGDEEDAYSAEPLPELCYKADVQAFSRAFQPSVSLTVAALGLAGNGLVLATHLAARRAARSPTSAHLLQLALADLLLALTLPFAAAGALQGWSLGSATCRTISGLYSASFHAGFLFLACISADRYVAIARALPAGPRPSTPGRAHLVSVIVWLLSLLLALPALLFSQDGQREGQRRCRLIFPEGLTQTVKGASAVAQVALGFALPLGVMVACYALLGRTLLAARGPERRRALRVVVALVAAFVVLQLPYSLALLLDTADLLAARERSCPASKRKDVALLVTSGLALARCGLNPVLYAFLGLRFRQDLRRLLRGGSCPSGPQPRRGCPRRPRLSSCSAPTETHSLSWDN

[5] = target: T4, XCR1 C-terminally tagged to SmBiT (human) (UniProt P46094)
T4 sequence: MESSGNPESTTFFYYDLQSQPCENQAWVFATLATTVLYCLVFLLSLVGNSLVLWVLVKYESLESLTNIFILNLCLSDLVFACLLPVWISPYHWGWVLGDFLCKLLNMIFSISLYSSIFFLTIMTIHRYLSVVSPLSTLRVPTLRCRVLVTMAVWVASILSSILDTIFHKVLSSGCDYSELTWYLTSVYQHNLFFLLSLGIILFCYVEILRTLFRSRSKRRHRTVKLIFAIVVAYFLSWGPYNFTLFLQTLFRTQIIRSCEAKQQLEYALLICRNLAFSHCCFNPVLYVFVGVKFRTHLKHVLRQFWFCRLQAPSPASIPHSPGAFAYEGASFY

[6] = target: CCR7 C-terminally tagged to SmBiT (human) (UniProt P32248)
[7] = target: T5, CCR9 C-terminally tagged to SmBiT (human) (UniProt P51686)
T5 sequence: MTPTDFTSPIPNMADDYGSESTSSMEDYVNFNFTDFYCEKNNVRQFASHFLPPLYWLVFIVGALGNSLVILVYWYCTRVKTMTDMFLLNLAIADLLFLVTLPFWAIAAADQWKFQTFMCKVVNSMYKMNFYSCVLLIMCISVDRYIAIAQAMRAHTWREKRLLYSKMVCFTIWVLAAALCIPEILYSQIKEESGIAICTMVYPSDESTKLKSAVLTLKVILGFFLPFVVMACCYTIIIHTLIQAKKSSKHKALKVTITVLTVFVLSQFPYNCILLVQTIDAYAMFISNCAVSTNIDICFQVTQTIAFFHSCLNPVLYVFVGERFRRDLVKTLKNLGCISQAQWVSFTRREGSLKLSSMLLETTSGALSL

[8] = target: CCR8 C-terminally tagged to SmBiT (human) (UniProt P51685)
[9] = target: T6, ACKR2 C-terminally tagged to SmBiT (human) (UniProt O00590)
T6 sequence: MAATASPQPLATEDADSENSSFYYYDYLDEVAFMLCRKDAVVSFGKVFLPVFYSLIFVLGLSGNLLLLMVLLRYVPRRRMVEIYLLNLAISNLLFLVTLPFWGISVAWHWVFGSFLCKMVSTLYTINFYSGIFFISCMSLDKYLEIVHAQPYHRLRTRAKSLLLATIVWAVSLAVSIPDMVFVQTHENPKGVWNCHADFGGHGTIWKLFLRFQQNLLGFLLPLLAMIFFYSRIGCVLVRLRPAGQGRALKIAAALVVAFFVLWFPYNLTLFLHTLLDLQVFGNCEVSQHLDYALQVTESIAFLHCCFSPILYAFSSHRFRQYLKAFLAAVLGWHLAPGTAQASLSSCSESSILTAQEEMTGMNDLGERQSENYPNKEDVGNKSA

[10] = target: T7, CCR1 C-terminally tagged to SmBiT (human) (UniProt P32246)
T7 sequence: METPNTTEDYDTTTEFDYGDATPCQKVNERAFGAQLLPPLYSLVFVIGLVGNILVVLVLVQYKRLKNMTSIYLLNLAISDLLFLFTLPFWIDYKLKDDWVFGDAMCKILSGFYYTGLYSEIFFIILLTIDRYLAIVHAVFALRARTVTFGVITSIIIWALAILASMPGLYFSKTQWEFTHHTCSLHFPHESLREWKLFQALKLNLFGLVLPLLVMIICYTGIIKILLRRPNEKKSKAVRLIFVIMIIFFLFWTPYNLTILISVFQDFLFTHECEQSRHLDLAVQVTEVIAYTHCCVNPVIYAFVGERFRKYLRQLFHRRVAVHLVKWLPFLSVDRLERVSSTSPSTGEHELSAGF

[11] = target: T8, CCR4 C-terminally tagged to SmBiT (human) (UniProt P51679)
T8 sequence: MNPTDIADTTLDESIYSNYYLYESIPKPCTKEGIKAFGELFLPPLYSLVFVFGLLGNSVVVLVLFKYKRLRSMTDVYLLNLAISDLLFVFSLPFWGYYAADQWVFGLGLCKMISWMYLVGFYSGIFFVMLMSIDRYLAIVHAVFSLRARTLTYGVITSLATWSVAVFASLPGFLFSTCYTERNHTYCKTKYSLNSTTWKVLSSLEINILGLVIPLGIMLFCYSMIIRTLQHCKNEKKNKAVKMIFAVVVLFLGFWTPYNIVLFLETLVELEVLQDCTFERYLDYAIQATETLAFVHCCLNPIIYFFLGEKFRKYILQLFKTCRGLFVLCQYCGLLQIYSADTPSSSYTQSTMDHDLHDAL

[12] = target: CCR5 C-terminally tagged to SmBiT (human) (UniProt P51681)
[13] = target: CXCR5 C-terminally tagged to SmBiT (human) (UniProt P32302)
[14] = target: CX3CR1 C-terminally tagged to SmBiT (human) (UniProt P49238)

binding [1]: binds
binding [2]: binds
binding [3]: binds
binding [4]: binds
binding [5]: binds
binding [6]: binds
binding [7]: binds
binding [8]: binds
binding [9]: binds
binding [10]: binds
binding [11]: binds
binding [12]: binds
binding [13]: binds
binding [14]: binds
Substance: Human β-arrestin-2 N-terminally fused to LgBiT (from UniProt P32121 1-409)
